# Reference: patent US20110218242A1, “Polyunsaturated Fatty Acids for Treatment of Dementia and Pre-Dementia-Related Conditions” (priority 2005, published 2011)
# At least one compound was matched to its structure with a doubt left.
# Test system: presenilin 1 mRNA in SHSY5Y cells
# Test: Presenilin 1 mRNA in SHSY5Y cells treated with DHA
# Format: cell-based
# Details: 48 hours, 0.3 μg/ml DHA complexed 3:1 to BSA vs BSA alone, p<0.05
compound,measurement,value
"CC/C=C\C/C=C\C/C=C\C/C=C\C/C=C\C/C=C\CCC(=O)O [DHA, docosahexaenoic acid]",presenilin 1 mRNA,significantly reduced
